Data as given in PubChem BioAssay AID1224826 (NIAID, 2016)

- Purpose: 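Genes that change LPS-induced Tnf promoter activity in mouse macrophages when knocked down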 (primary screen)
- Cell system: RAW264.7 G9 macrophages from mouse bearing reporters for p65 (GFP) and the Tnf promoter (mCherry)
- Reagents: siRNA pool against mouse genes, 100 nM
- Duration: 16 h of LPS stimulation, after 2 days of siRNA transfection
- Conditions: bacterial lipopolysaccharide (Salmonella minnesota R595), 10 ng/ml
- Read-out: 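Nuclear mCherry signal of the Tnf promoter reporter measured by imaging after background removal, scaled to each plate median and turned into robust z-scores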
- Direction: Tnf reporter robust z-score: higher = stronger Tnf promoter reporter signal after LPS; Tnf reporter intensity: higher = stronger Tnf promoter reporter signal
- Call rule: 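a well counts as active at a score of -1.3 or below (Tlr4 knock-down control median) or above 3 (raised signal); controls and wells holding fewer than 50 cells are excluded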
- Calls: active = Tnf reporter clearly lowered or raised; inactive = no clear change in Tnf reporter
Here is an unselected part of about 17,000 reagents tested. About 1,110 of all reagents (6.6%) were called active. 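Active means lowered or raised reporter signal; replicate intensities are raw and not normalised per plate.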

| gene | Tnf reporter robust z-score | fewer than 50 cells in well | Tnf reporter intensity, replicate 1 | Tnf reporter intensity, replicate 2 | activity call |
| --- | --- | --- | --- | --- | --- |
| Ccr1l1 | 1.38 | enough cells in well | 203 | 311 | inactive |
| Irx2 | -0.98 | enough cells in well | 127 | 89.2 | inactive |
| Limk2 | -0.42 | enough cells in well | 139 | 166 | inactive |
| Arhgef10 | 2.21 | enough cells in well | 262 | 332 | inactive |
| Krtap3-3 | 0.12 | enough cells in well | 191 | 143 | inactive |
| Vmn1r47 | – | fewer than 50 cells per well; well left out of calls | 60.5 | 42.7 | inactive |
| Cep15 | 0.63 | enough cells in well | 204 | 84.3 | inactive |
| Cd46 | 0.36 | enough cells in well | 356 | 180 | inactive |
| Mbd3 | 0.37 | enough cells in well | 300 | 229 | inactive |
| Med25 | -1.21 | enough cells in well | 166 | 35.9 | inactive |
| Ltb4r1 | 0.05 | enough cells in well | 245 | 254 | inactive |
| Hspa8 | – | fewer than 50 cells per well; well left out of calls | 63 | 55.4 | inactive |
| Abcc5 | -1.14 | enough cells in well | 121 | 69.9 | inactive |
| Insrr | 0.34 | enough cells in well | 193 | 202 | inactive |
| Smurf1 | – | fewer than 50 cells per well; well left out of calls | 82.3 | 88.1 | inactive |
| Arl6ip4 | -1.14 | enough cells in well | 94.4 | 115 | inactive |
| Usp18 | -1.01 | enough cells in well | 157 | 145 | inactive |
| Chmp1b2 | – | fewer than 50 cells per well; well left out of calls | 273 | 90.3 | inactive |
| Rps14 | -0.53 | enough cells in well | 93.9 | 116 | inactive |
| Nanos2 | -0.94 | enough cells in well | 151 | 35.4 | inactive |
| Rac2 | 0.14 | enough cells in well | 273 | 249 | inactive |
| Neil3 | -1.26 | enough cells in well | 117 | 121 | inactive |
| Krtap14 | -0.61 | enough cells in well | 174 | 89.3 | inactive |
| Cdk6 | -0.26 | enough cells in well | 181 | 143 | inactive |
| Or4a15 | -1.81 | enough cells in well | 80.3 | 60 | active |
| Igfbp3 | – | fewer than 50 cells per well; well left out of calls | 107 | 82.4 | inactive |
| Nfrkb | -0.01 | enough cells in well | 146 | 170 | inactive |
| Otx2 | – | fewer than 50 cells per well; well left out of calls | 58.3 | 95 | inactive |
| Serpini2 | 0.65 | enough cells in well | 372 | 234 | inactive |
| Upk2 | 0.42 | enough cells in well | 102 | 102 | inactive |
| Abcb1b | 0.31 | enough cells in well | 261 | 174 | inactive |
| Rttn | -0.99 | enough cells in well | 96.9 | 73.6 | inactive |
| Ube2h | -0.77 | enough cells in well | 177 | 162 | inactive |

An excerpt from above, limited to “Tnf reporter intensity, replicate 2”.
Mbd3 = 229
Med25 = 35.9
Ltb4r1 = 254

The results go on.
| gene | Tnf reporter robust z-score | fewer than 50 cells in well | Tnf reporter intensity, replicate 1 | Tnf reporter intensity, replicate 2 | activity call |
| --- | --- | --- | --- | --- | --- |
| Phtf2 | -0.73 | enough cells in well | 188 | 142 | inactive |
| Stx12 | 0.17 | enough cells in well | 96.3 | 114 | inactive |
| Fbxo32 | -0.88 | enough cells in well | 164 | 160 | inactive |
| Hspd1 | 0.69 | enough cells in well | 270 | 252 | inactive |
| Gpc3 | 0.57 | enough cells in well | 230 | 271 | inactive |
| Slc23a2 | 2.51 | enough cells in well | 172 | 203 | inactive |
| Clec1a | -0.65 | enough cells in well | 121 | 126 | inactive |
| Ppp1r14c | -0.39 | enough cells in well | 224 | 158 | inactive |
| Slc20a2 | 2.19 | enough cells in well | 161 | 192 | inactive |
| Slc25a44 | -0.26 | enough cells in well | 143 | 143 | inactive |
| Acot9 | 2.52 | enough cells in well | 384 | 344 | inactive |
| Acbd5 | -0.18 | enough cells in well | 177 | 192 | inactive |
| Ocstamp | 0.84 | enough cells in well | 263 | 87.4 | inactive |
| Kpna2 | 1 | enough cells in well | 318 | 203 | inactive |
| Abr | -0.87 | enough cells in well | 94.8 | 130 | inactive |
| Zfp704 | -0.93 | enough cells in well | 162 | 98.9 | inactive |
| Clnk | 1.63 | enough cells in well | 234 | 169 | inactive |
| Tas2r102 | -0.08 | enough cells in well | 115 | 65.9 | inactive |
| Mettl13 | 0.33 | enough cells in well | 156 | 201 | inactive |
| Ackr4 | 0.1 | enough cells in well | 224 | 303 | inactive |
| Mettl8 | 1.95 | enough cells in well | 335 | 352 | inactive |
| Atpaf2 | -0.82 | enough cells in well | 141 | 102 | inactive |
| Six4 | 0.35 | enough cells in well | 329 | 227 | inactive |
| Get1 | -0.12 | enough cells in well | 145 | 90.1 | inactive |
| Tgoln2 | 0.6 | enough cells in well | 141 | 120 | inactive |
